{
  "source": "patent US5650395A",
  "about": "(priority 1995, dated 1997)",
  "assay": "Boc solid-phase peptide synthesis; Boc-L-Leu Merrifield resin; diisopropyl carbodiimide; preformed symmetrical anhydrides; preformed HOBT ester",
  "settings": "whole synthesis, scale 244.7 g resin",
  "data": [
    {"substance": "D-F5-Phe-Gln-Trp-Ala-Val-D-Ala-His-Leu-OMe", "values": [
      {"measurement": "isolated mass", "value": 30.9, "unit": "g"}
    ]}
  ]
}
